{
  "sequences": {"note": "Protein sequences, listed by entry. Tags and fused reporters are not part of them. Residues count along the entry.", "UniProt P43220, 24-463 limits assumed": "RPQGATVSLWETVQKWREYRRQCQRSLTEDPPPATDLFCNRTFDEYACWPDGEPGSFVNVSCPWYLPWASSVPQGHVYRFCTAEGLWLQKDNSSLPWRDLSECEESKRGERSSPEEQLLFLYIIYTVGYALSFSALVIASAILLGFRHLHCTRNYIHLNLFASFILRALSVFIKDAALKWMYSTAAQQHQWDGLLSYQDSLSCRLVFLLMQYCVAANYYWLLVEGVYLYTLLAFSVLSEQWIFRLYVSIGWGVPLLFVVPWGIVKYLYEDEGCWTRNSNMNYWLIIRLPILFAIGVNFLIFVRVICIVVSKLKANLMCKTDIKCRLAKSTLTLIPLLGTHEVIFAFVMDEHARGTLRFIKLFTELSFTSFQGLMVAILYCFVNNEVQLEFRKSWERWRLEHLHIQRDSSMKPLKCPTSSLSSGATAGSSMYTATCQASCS"},
  "source": "patent US11702404B2",
  "about": "“GLP-1R modulating compounds” (priority 2019, dated 2023)",
  "key": {"GLP-1R": {"molecular_target": "GLP-1R (Homo sapiens, UniProt P43220)", "experiment": "GLP-1R activation: cAMP increase in CHO cells stably expressing GLP-1R", "type": "cell-based", "settings": "10 point dose response, 30 minutes incubation"}, "[1]": {"experiment": "Microsomal stability, human liver microsomes (predicted hepatic clearance)", "settings": "predicted from in vitro microsomal stability data"}},
  "note": "The match of structure and compound is tentative.",
  "data": [
    {"smiles": "N#Cc1ccc(COc2cccc(-c3ccc(Cc4nc5c(I)cc(C(=O)O)cc5n4CC4(CF)CC4)c(F)c3)n2)c(F)c1", "values": [
      {"measurement": "EC50", "setting": "GLP-1R", "result": 1.7, "unit": "nM"},
      {"measurement": "Predicted Hepatic Clearance (Pred. Cl.)", "setting": "[1]", "result": 6.33, "unit": "mL/min/kg"}
    ]}
  ]
}
